Results as given in publication PMC6602337.
These are yes or no findings as the source states them, for the method shown. In cells and extracts the contact can be indirect. Some results given as binding are weak or reduced against the parent protein; the word gives no strength. Where a sequence is shown, tags or fusion partners need not be part of it.

Chains of the proteins cited; added tags and fusions are not shown.
UniProt Q6UFS5: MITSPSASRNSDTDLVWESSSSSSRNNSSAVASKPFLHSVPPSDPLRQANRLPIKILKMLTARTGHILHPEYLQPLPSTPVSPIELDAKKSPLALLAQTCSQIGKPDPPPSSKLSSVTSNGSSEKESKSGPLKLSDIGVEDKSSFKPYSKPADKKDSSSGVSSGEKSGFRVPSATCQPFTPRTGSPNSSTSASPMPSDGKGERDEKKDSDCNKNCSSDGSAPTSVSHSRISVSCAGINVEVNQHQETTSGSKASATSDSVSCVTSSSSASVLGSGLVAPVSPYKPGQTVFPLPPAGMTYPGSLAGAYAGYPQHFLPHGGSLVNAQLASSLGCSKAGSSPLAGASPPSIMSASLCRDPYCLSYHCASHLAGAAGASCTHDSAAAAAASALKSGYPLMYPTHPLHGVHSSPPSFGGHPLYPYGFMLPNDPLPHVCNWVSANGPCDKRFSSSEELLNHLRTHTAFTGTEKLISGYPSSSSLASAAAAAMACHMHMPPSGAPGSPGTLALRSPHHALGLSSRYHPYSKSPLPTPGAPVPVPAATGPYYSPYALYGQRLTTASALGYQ

Molecular target: Nlz2-FLAG (zebrafish zinc-finger transcription factor Nlz2 with C-terminal FLAG tag) (zebrafish) (UniProt Q6UFS5)
Assay: co-IP; HEK 293 cells co-transfected with Nlz2-FLAG, Siah1-MYC and Ubiquitin-HA; lysed in TCL buffer (50 mM Tris pH 7.5, 150 mM NaCl, 1% Triton, 1% SDS, 10 µM MG-132), boiled at 95°C for 10 min, diluted with TCL buffer without SDS; precipitated with mouse anti-FLAG and Protein A sepharose overnight at 4°C; blot with anti-MYC, anti-FLAG, anti-HA

binding: binds
B1: Siah1-myc (zebrafish E3 ubiquitin ligase Siah1 with C-terminal MYC tag) (enzyme, UniProt Q7ZVG6 1-282)
chain: MSRQTATALPTGTSKCPPSQRVPTLSGTTASNSDLASLFECPVCFDYVLPPILQCQSGHLVCSNCRPKLTCCPTCRGPLGSIRNLAMEKVANSVLFPCKYASSGCEVTLPHTDKAEHEELCEFRPYSCPCPGASCKWQGSLDAVMPHLLHQHKSITTLQGEDIVFLATDINLPGAVDWVMMQSCFGFHFMLVLEKQEKYDGHQQFFAIVQLIGTRKQAENFAYRLELNGHRRRLTWEATPRSIHEGIATAIMNSDCLVFDTSIAQLFAENGNLGINVTISMC
